Measurements as given in publication doi:10.1101/266833.
No constants are given. Whether binding was seen depends on the method and setting. In cells and extracts the contact can be indirect. Here binding means that the protein was enriched with, or labelled near, the bait; the list need not be complete. For some of these results: No binding means not detected with the bait.

T1: TAP-Upf1-CH-HD (2-853) (S. cerevisiae) (UniProt P30771)
T1 sequence: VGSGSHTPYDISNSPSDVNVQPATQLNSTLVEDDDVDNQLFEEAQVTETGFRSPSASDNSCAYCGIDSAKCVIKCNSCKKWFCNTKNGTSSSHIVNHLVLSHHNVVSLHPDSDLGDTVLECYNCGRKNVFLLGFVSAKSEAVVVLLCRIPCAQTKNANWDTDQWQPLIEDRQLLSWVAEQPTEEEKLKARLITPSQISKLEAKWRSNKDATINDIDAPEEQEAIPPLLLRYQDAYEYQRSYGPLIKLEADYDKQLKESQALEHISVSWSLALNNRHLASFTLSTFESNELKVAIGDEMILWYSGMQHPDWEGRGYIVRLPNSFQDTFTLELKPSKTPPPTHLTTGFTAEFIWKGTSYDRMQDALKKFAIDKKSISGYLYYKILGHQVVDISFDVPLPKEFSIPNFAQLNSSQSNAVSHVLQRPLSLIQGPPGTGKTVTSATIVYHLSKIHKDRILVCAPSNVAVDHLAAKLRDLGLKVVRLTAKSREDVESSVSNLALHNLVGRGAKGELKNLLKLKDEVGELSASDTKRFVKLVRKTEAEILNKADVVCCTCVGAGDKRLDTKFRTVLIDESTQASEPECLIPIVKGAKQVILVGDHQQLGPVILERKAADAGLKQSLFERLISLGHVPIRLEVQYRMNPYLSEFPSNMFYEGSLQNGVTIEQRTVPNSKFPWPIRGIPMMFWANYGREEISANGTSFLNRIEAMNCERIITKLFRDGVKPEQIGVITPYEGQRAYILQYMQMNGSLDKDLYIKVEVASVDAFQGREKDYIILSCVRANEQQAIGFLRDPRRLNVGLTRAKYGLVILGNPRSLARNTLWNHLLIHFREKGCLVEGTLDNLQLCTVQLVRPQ

T2: TAP-Upf1-CH (2-208) (S. cerevisiae) (UniProt P30771)
T2 sequence: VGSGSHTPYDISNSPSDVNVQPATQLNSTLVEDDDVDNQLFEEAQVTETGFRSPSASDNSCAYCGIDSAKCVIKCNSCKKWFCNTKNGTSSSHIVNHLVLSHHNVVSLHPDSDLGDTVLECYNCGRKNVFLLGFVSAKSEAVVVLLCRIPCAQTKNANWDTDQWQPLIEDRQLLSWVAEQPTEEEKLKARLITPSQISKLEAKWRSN

T3: Upf1-TAP (S. cerevisiae) (UniProt P30771)
T3 sequence: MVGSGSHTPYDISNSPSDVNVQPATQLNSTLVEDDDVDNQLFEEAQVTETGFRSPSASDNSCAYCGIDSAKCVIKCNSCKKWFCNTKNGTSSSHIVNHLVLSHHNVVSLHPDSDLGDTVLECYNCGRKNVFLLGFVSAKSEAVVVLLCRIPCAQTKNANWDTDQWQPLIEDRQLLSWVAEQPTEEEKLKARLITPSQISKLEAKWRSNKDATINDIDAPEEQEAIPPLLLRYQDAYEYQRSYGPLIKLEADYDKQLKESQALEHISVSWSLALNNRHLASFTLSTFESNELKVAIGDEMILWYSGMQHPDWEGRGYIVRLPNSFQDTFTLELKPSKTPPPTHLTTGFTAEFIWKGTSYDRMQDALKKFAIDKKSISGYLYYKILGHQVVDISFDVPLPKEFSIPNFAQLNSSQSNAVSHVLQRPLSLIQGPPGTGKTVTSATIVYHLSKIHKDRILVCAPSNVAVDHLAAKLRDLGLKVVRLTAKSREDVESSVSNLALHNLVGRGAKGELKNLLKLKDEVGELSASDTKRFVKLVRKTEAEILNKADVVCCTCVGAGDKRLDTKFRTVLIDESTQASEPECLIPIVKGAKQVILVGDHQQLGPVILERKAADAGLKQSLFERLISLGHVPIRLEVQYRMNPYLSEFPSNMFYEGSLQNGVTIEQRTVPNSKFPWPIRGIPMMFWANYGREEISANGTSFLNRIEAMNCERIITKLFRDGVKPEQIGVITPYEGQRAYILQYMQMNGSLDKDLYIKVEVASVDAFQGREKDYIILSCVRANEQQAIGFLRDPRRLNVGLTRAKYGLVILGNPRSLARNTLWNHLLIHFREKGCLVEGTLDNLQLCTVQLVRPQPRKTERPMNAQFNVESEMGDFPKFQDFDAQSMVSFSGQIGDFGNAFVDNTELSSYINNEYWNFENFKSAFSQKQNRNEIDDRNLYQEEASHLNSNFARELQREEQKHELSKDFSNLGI

T4: Dcp1-TAP (S. cerevisiae) (UniProt Q12517)
T4 sequence: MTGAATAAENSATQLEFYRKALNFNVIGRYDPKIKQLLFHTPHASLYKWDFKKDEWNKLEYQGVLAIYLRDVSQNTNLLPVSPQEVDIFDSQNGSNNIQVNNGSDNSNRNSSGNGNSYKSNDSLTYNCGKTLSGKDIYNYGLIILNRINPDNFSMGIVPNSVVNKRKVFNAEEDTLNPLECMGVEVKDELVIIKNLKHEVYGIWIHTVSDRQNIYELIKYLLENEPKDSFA

B1: Nmd4 (protein, UniProt Q12129 1-218)
chain: MTQYNFIIDASAFEKGLGNIKRWCSDCTEAVTLNFYIPTFTLNELDFLQQRRKSFAARESLKFIDRLDDSKFANLKVFIEFPEVLDIILWSDVMEHNDSSGKINIAKLPKRLKNLLKSCIYKCYLEGNEGLHWFLISEDPQIREMAMQCNIPSCSIVDVDSILSKDMNDKSFRESEKFNNMMLKNGTKEESENGREIIRTNFNKTVYASRGTGELWSP
B2: Ebs1 (protein, UniProt Q03466 1-884)
chain: MEPSNTQKEDLPTAFNGIKSQLNSILKSNQLFQDYALLNGFLAFVHSKLNAAILTSIESQCGKSFAADLDSFDQSSISSILDFSWESVHYPIFKWFQMWRNYILFEKENKKQQTKFIDFRKMNSKMLKFFKTVQNFYVNVINTVYKKYDISVLLPKRIIQDLKLSDIENTTNVGDILAVKTFNSSSPLAHLIPTLFHRCLLFLGTAYRYKTLLEEISNKYSISNFKKSLDFFRLASLVLPSAGETYSQAGAIFLQTGNLGIAVFNFVKGMMTKMPSPVSIKNFGALMVDNKSSLNRSLHTTIMNTYLQESKGPRTPAKEILEFYFLGLFGSVWSPTSWRDDTKPNQLNNGIKLRHLENALYETMSARYLNNIKTIFHNLIITIGGFHLLLKRRSDVSAKTLKDLRSNELDYLNFAFKYIAHILNDIVKESWSENPEVSEILGMVRIINCWIKANPMVLQYSQSNLEFVNALAYLINDIVKKKPSPSFSITEHIPKRTYWFEEDLMVKGLSFVNFQLSDFDDYEKILEMDHSLDRLIGNPPLCDKLSASSEMLLRLQAVVNISSQLLQNNNCGVEWSDNKSRYIFNKKIGFKETVKNSMKTSKQSNEKAKLQRKNKPSTTNGSISMADLERQMRSSSLDSFSPTMGYSGSSVPMAPDTFNVKPSGTITGNKVNVELLKIELSGQNADGAITNISPGYSNAAISSSNSTDESSFDLNNILSSMQQKHAEKSFAKSMQGVNEQIPANDVCHQAQRPMQGGLYSSQQPSSMSSLNSAYQNASMPPSASMVSYPYPFLNQQGQGVFPPYNAQNLQWQSEAYSLKSMNFANPTWLGDQYQTSAPSSAYAQAQRQMFQQPMQQDVGKYMQFPFDAQSNTDSMRGNSRNNMF

What was measured:
[1] = molecular target: T1, TAP-Upf1-CH-HD (2-853) (S. cerevisiae); assay: affinity purification with mass spectrometry
[2] = molecular target: T2, TAP-Upf1-CH (2-208) (S. cerevisiae); assay: affinity purification with mass spectrometry
Upf1-TAP (S. cerevisiae) = molecular target: T3, Upf1-TAP (S. cerevisiae); assay: affinity purification with mass spectrometry
Dcp1-TAP (S. cerevisiae) = molecular target: T4, Dcp1-TAP (S. cerevisiae); assay: affinity purification with mass spectrometry
[3] = molecular target: T2, TAP-Upf1-CH (2-208) (S. cerevisiae); assay: condition: only with RNase A and RNase T1 treatment

| Binder | binding [1] | binding [2] | binding (Upf1-TAP (S. cerevisiae)) | binding (Dcp1-TAP (S. cerevisiae)) | binding [3] |
| --- | --- | --- | --- | --- | --- |
| B1 | binds | no binding | binds |  |  |
| B2 |  | binds | binds | binds | no binding |
